# Results from PMC11380579.
# The chains behind the UniProt entries cited, without tags or fusion partners. Where a name states a change or a piece, a line headed by the entry shows the natural chain unless it says otherwise. A line that says so, or that is headed by a name, gives the form on record, which may keep a tag or linker.
# UniProt Q9P7T4: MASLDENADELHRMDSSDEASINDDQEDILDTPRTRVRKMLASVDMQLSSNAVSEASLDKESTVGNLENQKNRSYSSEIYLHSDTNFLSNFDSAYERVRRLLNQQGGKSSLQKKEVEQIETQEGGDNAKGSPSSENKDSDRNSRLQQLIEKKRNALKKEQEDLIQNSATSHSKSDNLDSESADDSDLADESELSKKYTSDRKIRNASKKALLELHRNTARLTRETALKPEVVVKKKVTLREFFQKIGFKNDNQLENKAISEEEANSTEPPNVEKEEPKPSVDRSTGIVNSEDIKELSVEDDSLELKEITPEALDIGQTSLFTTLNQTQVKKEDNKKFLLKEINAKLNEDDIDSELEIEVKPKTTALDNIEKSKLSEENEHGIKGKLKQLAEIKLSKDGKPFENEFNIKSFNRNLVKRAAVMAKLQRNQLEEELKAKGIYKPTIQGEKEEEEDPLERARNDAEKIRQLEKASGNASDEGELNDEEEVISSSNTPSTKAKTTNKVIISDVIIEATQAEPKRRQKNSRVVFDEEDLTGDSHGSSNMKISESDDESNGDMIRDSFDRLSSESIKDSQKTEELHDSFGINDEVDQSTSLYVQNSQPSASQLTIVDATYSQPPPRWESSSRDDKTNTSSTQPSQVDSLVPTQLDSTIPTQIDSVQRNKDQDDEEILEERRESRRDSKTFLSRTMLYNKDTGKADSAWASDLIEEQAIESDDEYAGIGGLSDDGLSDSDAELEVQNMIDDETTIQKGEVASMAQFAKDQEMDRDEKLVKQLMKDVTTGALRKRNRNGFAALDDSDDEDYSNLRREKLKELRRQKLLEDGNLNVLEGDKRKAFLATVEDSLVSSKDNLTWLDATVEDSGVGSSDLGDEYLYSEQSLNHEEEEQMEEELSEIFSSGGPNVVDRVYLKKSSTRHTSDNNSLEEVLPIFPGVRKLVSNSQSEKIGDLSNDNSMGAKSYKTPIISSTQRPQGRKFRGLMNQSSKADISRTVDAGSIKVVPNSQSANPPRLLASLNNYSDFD
# Mrc1-3A (Q9P7T4, form named): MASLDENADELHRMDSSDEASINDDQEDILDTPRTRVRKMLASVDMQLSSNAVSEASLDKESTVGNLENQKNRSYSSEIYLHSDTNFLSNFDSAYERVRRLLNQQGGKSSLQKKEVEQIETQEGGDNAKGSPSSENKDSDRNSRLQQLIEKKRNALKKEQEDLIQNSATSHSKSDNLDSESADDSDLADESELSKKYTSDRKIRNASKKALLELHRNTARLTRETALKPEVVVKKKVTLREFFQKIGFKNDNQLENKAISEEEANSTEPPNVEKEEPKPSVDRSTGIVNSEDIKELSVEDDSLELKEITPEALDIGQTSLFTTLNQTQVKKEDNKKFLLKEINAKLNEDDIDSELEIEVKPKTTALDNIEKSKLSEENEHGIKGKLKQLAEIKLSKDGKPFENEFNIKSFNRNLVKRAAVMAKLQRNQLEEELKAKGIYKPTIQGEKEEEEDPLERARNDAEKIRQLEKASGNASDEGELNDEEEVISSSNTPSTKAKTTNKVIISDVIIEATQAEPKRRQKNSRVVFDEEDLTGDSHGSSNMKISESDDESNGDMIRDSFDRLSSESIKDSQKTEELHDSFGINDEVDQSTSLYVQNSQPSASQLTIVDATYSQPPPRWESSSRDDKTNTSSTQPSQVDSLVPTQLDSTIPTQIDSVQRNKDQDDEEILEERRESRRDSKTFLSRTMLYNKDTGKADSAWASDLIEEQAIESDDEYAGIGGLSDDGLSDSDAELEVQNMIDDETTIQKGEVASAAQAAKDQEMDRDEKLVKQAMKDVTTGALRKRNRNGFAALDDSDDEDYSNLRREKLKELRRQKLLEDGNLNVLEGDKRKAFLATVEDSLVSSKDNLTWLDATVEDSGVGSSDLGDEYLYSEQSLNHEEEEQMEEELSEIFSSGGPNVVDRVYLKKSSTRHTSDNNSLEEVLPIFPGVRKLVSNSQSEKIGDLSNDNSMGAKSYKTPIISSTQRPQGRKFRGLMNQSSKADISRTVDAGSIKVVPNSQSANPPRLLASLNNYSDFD
# Molecular target: T1, TAP-tagged Sld5 (S. pombe) (UniProt Q9P7C8)
# T1 sequence: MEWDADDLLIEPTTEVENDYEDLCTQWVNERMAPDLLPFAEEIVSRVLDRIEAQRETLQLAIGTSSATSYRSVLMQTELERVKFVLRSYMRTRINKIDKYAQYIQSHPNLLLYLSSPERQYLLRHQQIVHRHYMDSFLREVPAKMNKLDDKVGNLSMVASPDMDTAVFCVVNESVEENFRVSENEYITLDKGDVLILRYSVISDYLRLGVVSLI
# Assay: affinity purification with mass spectrometry; TAP-tagged Sld5 precipitated on rabbit IgG Dynabeads from Benzonase-treated lysate of mrc1+, mrc1-W620STOP or mrc1-3A S. pombe cells; label-free mass spectrometry
row,Substance,binding
1,Mrc1 (from UniProt Q9P7T4 1-1019),binds
2,Mrc1-3A (from UniProt Q9P7T4 1-1019),binds
3,truncated Mrc1-(1–620) (mrc1-W620STOP cells) (from UniProt Q9P7T4 1-620) (domain or fragment),binds

# These are yes or no findings as the source states them, for the method shown. Binding seen in cells or lysates may run through a third protein. A yes stands for co-enrichment or nearness to the bait. Other partners may have been found. Tags and fused reporters may be left off the sequences shown.
